{
  "source": "paper PMC8262886",
  "about": "“The Breadth and Molecular Basis of Hcp-Driven Type VI Secretion System Effector Delivery” (mBio, 2021)",
  "binders": {"B1": {"name": "PA2066-HA (protein, UniProt Q9I249 1-212)", "chain": "MSPTLQDARLLWDFLGQGRCHVPCELLVVCGSYDLRVCDHACELLERGLAERLLFTGNTGHWTRHLWVEPEAELFARHARARGVSDSLIVIEPRATNFAENIAFARELFPDLRRATFVTKPNSIRRVALTLPVRWPGLEGHVDAPDYAFPDGISNLVGVLGVIDEMVGDLDRIMRYPALGFQVACPIPAQVMDAWERLVARGFDRHLVNPPR"}},
  "key": {"Hcp2-His (P. aeruginosa) [1]": {"molecular_target": "Hcp2-His (P. aeruginosa)", "experiment": "condition: only after size exclusion chromatography of the Ni-NTA eluate; SEC; Ni-NTA elution peak of the coexpressed pair run on Superdex 200 10/300 in 50 mM Tris, pH 8, 150 mM NaCl (250 mM NaCl for Hcp1-His with HA-Tse2); peak fractions by Western blot or Coomassie stain"}, "Hcp2-His (P. aeruginosa) [2]": {"molecular_target": "Hcp2-His (P. aeruginosa)", "experiment": "pull-down; Hcp-His (bait, pACYCDuet-1) and HA-tagged effector (pET22b) coexpressed in E. coli BL21; soluble lysate on Ni-NTA resin (HisTrap Fast Flow) in 50 mM Tris, 500 mM NaCl, 20 mM imidazole, pH 8; eluted with 400 mM imidazole; Western blot anti-HA and anti-His or anti-Hcp2"}},
  "note": "Results are given in words; binding and its absence hold for the method and conditions named. For some assays here: Binding seen in cells or lysates may run through a third protein. For some assays here: A result given as binding can be weak or reduced; the word gives no strength. Where a sequence is shown, tags or fusion partners need not be part of it.",
  "data": [
    {"binder": "B1", "values": [
      {"measurement": "binding", "setting": "Hcp2-His (P. aeruginosa) [1]", "value": "no binding"},
      {"measurement": "binding", "setting": "Hcp2-His (P. aeruginosa) [2]", "value": "binds weakly"}
    ]}
  ]
}
